PubChem BioAssay AID652272, Drosophila RNAi Screening Center, 2013
Purpose: 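Genes whose knock-down decreases or increases Hedgehog reporter output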 (primary screen). Cells: Drosophila clone 8 (Cl8) cells. Reagent: long dsRNA against Drosophila genes. Read-out: 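Firefly light from a Hedgehog-responsive ptc promoter reporter and Renilla reference light, both read on a plate reader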. Direction: firefly Hh reporter signal: higher = more ptc reporter light; Renilla reference signal: higher = more Renilla control light. Hit rule: 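Called a hit if the two-replicate mean z-score lies below -2 or above +3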. Meaning of the calls: active = hit: reporter lowered or raised; inactive = not a hit.
The screen tested about 21,000 reagents; shown is a random part of those with a known target gene and a result. Over the whole deposit, 503 (2.4%) got an active call. 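Raw plate light values, not normalised; calls rest on replicate z-scores that were not deposited; hits include reporter decreases as well as increases.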 The numbers tell different reagents against one gene apart. The record does not give: the amount of reagent, the time to read-out.

For Agpat4, the entry reads firefly Hh reporter signal, replicate 1 = 1.04e5; Renilla reference signal, replicate 1 = 2928; Renilla reference signal, replicate 2 = 3753; inactive.
Depletion of Spn28Dc gave: firefly Hh reporter signal, replicate 1 = 49617; firefly Hh reporter signal, replicate 2 = 24688; Renilla reference signal, replicate 1 = 1956; Renilla reference signal, replicate 2 = 3931; active.
With knock-down of CG14676, the record shows firefly Hh reporter signal, replicate 1 = 1.01e5; firefly Hh reporter signal, replicate 2 = 1.40e5; Renilla reference signal, replicate 1 = 4075; Renilla reference signal, replicate 2 = 4147; inactive.
After knock-down of wry #1, the screen gave firefly Hh reporter signal, replicate 1 = 1.20e5; firefly Hh reporter signal, replicate 2 = 77890; Renilla reference signal, replicate 1 = 2835; Renilla reference signal, replicate 2 = 2168; inactive.
Knock-down of wry #2 came out at: firefly Hh reporter signal, replicate 1 = 2.38e5; firefly Hh reporter signal, replicate 2 = 1.50e5; Renilla reference signal, replicate 1 = 5380; Renilla reference signal, replicate 2 = 3975; inactive.

Laid out differently: 2 of the entries above
Target gene | dsRNA no. | firefly Hh reporter signal, replicate 1 | firefly Hh reporter signal, replicate 2 | firefly Hh reporter signal, replicate 3 | Renilla reference signal, replicate 1 | Renilla reference signal, replicate 2 | activity call
CG14676 | 1 | 1.01e5 | 1.40e5 | – | 4075 | 4147 | inactive
wry | 1 | 1.20e5 | 77890 | – | 2835 | 2168 | inactive

Further reagents follow.
Knock-down of Cbs resulted in: firefly Hh reporter signal, replicate 1 = 92912; firefly Hh reporter signal, replicate 2 = 1.20e5; Renilla reference signal, replicate 1 = 2346; Renilla reference signal, replicate 2 = 2451; inactive.
Against drosha, the entry reads firefly Hh reporter signal, replicate 1 = 70240; firefly Hh reporter signal, replicate 2 = 38203; Renilla reference signal, replicate 1 = 2456; Renilla reference signal, replicate 2 = 1465; inactive.
With knock-down of CG32532 #1 the results were firefly Hh reporter signal, replicate 1 = 1.33e5; firefly Hh reporter signal, replicate 2 = 3.34e5; Renilla reference signal, replicate 1 = 5507; Renilla reference signal, replicate 2 = 14448; inactive.
CG32532 #2 gave firefly Hh reporter signal, replicate 1 = 1.24e5; firefly Hh reporter signal, replicate 2 = 2.31e5; Renilla reference signal, replicate 1 = 4506; Renilla reference signal, replicate 2 = 9164; inactive.
Against CG32532 #3, the values are firefly Hh reporter signal, replicate 1 = 1.67e5; firefly Hh reporter signal, replicate 2 = 3.59e5; Renilla reference signal, replicate 1 = 6346; Renilla reference signal, replicate 2 = 15157; inactive.
Silencing of CG16904 came out at: firefly Hh reporter signal, replicate 1 = 1.00e5; firefly Hh reporter signal, replicate 2 = 64088; Renilla reference signal, replicate 1 = 3692; Renilla reference signal, replicate 2 = 2292; inactive.
CG14111 gave firefly Hh reporter signal, replicate 1 = 37392; firefly Hh reporter signal, replicate 2 = 49990; firefly Hh reporter signal, replicate 3 = 56199; Renilla reference signal, replicate 1 = 3767; Renilla reference signal, replicate 2 = 3846; inactive.
